# For at least one entry, the source does not settle the construct or the ends of the probe. Where cells or extracts were used, other partners may take part. No signal at the amounts used counts as a negative. Protein sequences can lack the tags named with them. A weaker result is weaker than the reference pair of the same experiment. At least one verdict was read from the data and is not stated in words by the source.
# Biological target: T1, ACO1 (aconitase 1, IRP1) (Homo sapiens (MDA-MB-231 exosome lysate)) (UniProt P21399)
# T1 sequence (looked up, limits assumed): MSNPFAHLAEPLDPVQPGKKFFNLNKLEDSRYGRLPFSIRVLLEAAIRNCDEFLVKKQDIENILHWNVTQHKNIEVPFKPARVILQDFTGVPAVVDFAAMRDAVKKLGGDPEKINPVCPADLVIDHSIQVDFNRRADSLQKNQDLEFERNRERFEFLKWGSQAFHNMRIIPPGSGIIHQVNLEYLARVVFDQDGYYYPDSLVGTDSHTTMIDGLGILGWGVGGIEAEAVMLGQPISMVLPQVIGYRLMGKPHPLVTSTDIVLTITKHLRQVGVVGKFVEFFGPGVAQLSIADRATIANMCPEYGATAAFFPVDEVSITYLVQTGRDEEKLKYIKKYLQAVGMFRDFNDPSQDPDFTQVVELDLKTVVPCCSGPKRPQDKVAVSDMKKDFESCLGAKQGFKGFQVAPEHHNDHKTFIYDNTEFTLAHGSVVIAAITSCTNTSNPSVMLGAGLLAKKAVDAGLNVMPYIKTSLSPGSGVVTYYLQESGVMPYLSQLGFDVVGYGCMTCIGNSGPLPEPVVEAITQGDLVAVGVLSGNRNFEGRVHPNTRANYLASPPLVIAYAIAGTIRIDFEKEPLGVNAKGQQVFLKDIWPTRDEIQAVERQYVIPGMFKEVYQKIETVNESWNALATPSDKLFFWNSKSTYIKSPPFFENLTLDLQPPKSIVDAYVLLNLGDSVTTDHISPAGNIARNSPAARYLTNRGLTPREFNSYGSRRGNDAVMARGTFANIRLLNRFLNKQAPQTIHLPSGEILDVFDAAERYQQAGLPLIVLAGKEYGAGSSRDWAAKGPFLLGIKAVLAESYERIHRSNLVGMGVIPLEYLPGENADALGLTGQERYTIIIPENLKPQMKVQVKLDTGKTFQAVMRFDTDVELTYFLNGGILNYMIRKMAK
# Assay: pull-down
# Details: Pulldown: 3 ug biotinylated miRNA, 1 mg lysate in RIPA buffer with RNase and protease inhibitors, 4 C 1 h, then streptavidin beads overnight at 4 C, protein in an extract
sequence,measurement,setting,value
GUCGUAACUAGUUGCAUUGCA [Biotin-miR-33a-5p mut1 (outside CAUUGC)],binding result,"ferric carboxymaltose (FeCM), label: biotin",binds more weakly
same,binding result,"no FeCM, label: biotin",binds
GUGCAUUGUAGUUGCAUUGCA [Biotin-hsa-miR-33a-5p],binding result,"ferric carboxymaltose (FeCM), label: 5' biotin",binds more weakly
same,binding result,"no FeCM, label: 5' biotin",binds
GUGCAUUGUAGUUGGUAACGA [Biotin-miR-33a-5p mut2 (CAUUGC mutated)],binding result,label: 5' biotin,no binding

# Source: publication PMC12408367 (2025)
